Source: paper doi:10.1101/522284
Where two headings read alike, the source gives them in different places. Results are given in words; binding and its absence hold for the method and conditions named. In cells and extracts the contact can be indirect. A yes stands for co-enrichment or nearness to the bait. Other partners may have been found. For part of these data: A no says only that the protein was not detected with the bait.

Columns and labels:
Test in all cases: affinity purification with mass spectrometry
[1] = biological target: Tau-RD* (FLAG-tagged human Tau-RD, Q244-E372, ΔK280) (human) (UniProt P10636)
[2] = biological target: Tau-RD* (FLAG-tagged human Tau-RD, Q244-E372, ΔK280) (human) (UniProt P10636); remark: listed apart in the source
[3] = biological target: Tau-RD* (FLAG-tagged human Tau-RD, Q244-E372, ΔK280) (human) (UniProt P10636); remark: listed apart in the source

Row | binding [1] | binding [2] | binding [3] | Molecule
1 | binds | binds | no binding (only Tau-RD* fibrils) | CTBP1 (from UniProt Q9Z2F5 1-430)
2 | binds | binds | no binding (only Tau-RD* fibrils) | FBXO3 (protein, UniProt D4ABP9 1-480) MAAVEAETGLLTLESLPTDPLLLILSFVDYRDLINCCYVSRRLSQLSTHDPLWRRHCKKYWLITEEEKARKNQCWKSLFIATYSDVGRYINHYAAIKKAWDDLKKYLEPRCPRMVLSLKEGAREEDLDAVEAQIGCKLPDDYRCSYRIHNGQKLVVPGLLGSMALSNHYRSEDLLDVDTAAGGFQQRQGLKYCLPLTFCIHTGLSQYIAVEAAEGRNKNEVFYQCPDQMARNPAAIDMFIIGATFTDWFTSYVNNVVSGGFPIIRDQIFRYIHDPECVATTGDITVSVSTSFLPELSSVHPPHYFFTYRIRIEMSRDALPEKACQLDSRYWRITNAKGDVEEVQGPGVVGEFPIISPGRIYEYTSCTTFSTTSGYMEGYYTFHFLYFKDKVFNVAIPRFHMACPTFRVSIARLEMGPDEYEEMEEEAEEEEEEENDDSADMDESDESDEDENESDEGEGEERRRRVFDVPIRRRRCSRLF
